Results taken from article doi:10.1101/2023.04.14.536856.

Key:
Assay in all cases: split reporter
[1] = molecular target: T1, NF-YC7-nLUC (Arabidopsis) (UniProt Q9FGP8)
T1 sequence: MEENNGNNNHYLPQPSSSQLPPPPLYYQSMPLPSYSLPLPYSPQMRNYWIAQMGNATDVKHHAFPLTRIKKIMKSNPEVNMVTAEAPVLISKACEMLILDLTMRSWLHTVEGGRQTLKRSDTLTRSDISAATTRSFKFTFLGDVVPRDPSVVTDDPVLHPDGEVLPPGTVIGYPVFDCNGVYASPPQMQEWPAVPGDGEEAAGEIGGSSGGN

[2] = molecular target: T2, NF-YC5-nLUC (Arabidopsis) (UniProt Q9FGP6)
T2 sequence: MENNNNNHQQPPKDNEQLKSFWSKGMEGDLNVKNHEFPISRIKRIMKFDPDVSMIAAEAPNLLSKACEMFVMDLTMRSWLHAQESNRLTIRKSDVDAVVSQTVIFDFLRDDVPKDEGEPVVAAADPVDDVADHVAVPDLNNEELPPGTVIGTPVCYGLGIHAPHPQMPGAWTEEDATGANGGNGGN

[3] = molecular target: T3, NF-YC8-nLUC (Arabidopsis) (UniProt Q4PSE2)
T3 sequence: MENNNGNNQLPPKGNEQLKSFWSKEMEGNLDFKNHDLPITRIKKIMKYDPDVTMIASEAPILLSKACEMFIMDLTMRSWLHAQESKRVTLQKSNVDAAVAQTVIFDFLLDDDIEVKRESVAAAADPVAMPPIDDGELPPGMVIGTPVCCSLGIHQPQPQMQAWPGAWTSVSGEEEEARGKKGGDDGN

Measured: binding

LRB1
binds: all assays above

LRB2
binds: all assays above

These are yes or no findings as the source states them, for the method shown. In cells and extracts the contact can be indirect. Binding can be weak; no strength is given. Tags and fused reporters may be left off the sequences shown.
